Assay results reported in PubChem BioAssay AID504467 (National Center for Advancing Translational Sciences (NCATS), 2011).
In all, about 330,000 compounds went through this assay and about 7,700 (2.3%) were called active. Inconclusive results, whose numbers are uncertain, are shown with a selection of clear calls. Calls follow the shape of the dose curve; as a rule, active = well fitted inhibition curve with a large enough effect; inconclusive = small, poorly fitted or top-dose-only effect, or effect the other way; inactive = flat fitted curve, though single readings scatter. Potencies of inconclusive entries are doubtful fits and often do not repeat.

Assay: qHTS screen for small molecules that inhibit ELG1-dependent DNA repair in human embryonic kidney (HEK293T) cells expressing luciferase-tagged ELG1; also: nearly all actives have a fitted effect of over 55% in size
Details: HEK293T ELG1-luciferase reporter, luminescence, 16 h, DNA damage induced by 5-fluorouridine; activity change, negative = inhibition: at 46.1 µM (top of the series)
Summary of the method: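 Overnight (16 hr) co-exposure of 2,000 cells/well to 5-fluorouridine and compound at 37 °C preceded detection. Luciferase was quantified via ONE-Glo luminescence; loss of signal denotes inhibition.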
% is scaled to controls: 0 for no effect and ±100 for the full control effect; potency is read from the fitted curve at half-maximal effect.

Q: Which Potency does the source give for `CCC(C)Sc1ccc([C@H]2N[C@@](CC(C)C)(C(=O)OC)[C@H]3C(=O)N(CC)C(=O)[C@@H]23)cc1` (stereo partly specified) here?
A: The Potency was inconclusive: 8.91 µM [inhibitor, partial curve, poor fit].

Q: Which Potency does the source give for `CC(C)(C)c1ccc(C(=O)NCC(=O)NCc2ccccn2)cc1` here?
A: Its Potency is inconclusive: 18.3 µM [activator, single point].

Q: For `Brc1cccc(-c2nnco2)c1`, which “activity change, negative = inhibition” value is on record?
A: The value was inactive: -3.08%.

Q: With `Cc1c(C(=O)NCc2ccc3c(c2)OCO3)sc2nc(-c3ccc(F)cc3)cn12` as the molecule, how does the Potency read?
A: The Potency was inconclusive: 29.1 µM [inhibitor, single point].

Q: Which Potency does the source give for `CCn1cc(/C=N/NC(=O)COc2cccc3cccnc23)c2ccccc21` here?
A: Its Potency is inconclusive: 23.1 µM [inhibitor, single point].

Q: For `Cc1ccc2[nH]c(-c3ccccc3)c(CN3CCCC3)c(=O)c2c1`, which Potency is on record?
A: The Potency was inconclusive: 32.6 µM [activator, partial curve, poor fit].

Q: For `Cn1nccc1C(=O)N(CCN1CCCCC1)CC1CCCN(C2CCCC2)C1` (stereo unspecified), which Potency is on record?
A: The Potency was inconclusive: 16.4 µM [activator, partial curve].

Q: With `CCOC(=O)c1cnc(Nc2ccc(OCC)cc2)nc1C` as the molecule, how does the Potency read?
A: Its Potency is inconclusive: 18.4 µM [activator, partial curve].

Q: Which Potency does the source give for `Cc1onc(-c2ccccc2Cl)c1C(=O)NNC(=O)c1nn(C)cc1Cl` here?
A: The Potency was inconclusive: 0.0018 µM [activator, full curve, poor fit].

Q: For `Cc1c(C(=O)NCc2cccs2)oc2ccc(S(=O)(=O)N3CCOCC3)cc12`, which Potency is on record?
A: Its Potency is active: 10.3 µM.

Q: Which Potency does the source give for `COc1cccc(C(=O)NCC(c2ccc3c(c2)OCO3)N2CCN(c3ccc(F)cc3)CC2)c1` (stereo unspecified) here?
A: Its Potency is inconclusive: 29.1 µM [inhibitor, single point].

Q: With `O=C(CS(=O)(=O)c1cn(CC(=O)N2CCOCC2)c2ccccc12)NCc1ccc(F)cc1` as the molecule, how does the “activity change, negative = inhibition” value read?
A: The value was inactive: 3.29%.

Q: For `CCC(=O)N/C(=N/c1nc(C)cc(C)n1)Nc1ccc(OC)cc1`, which Potency is on record?
A: Its Potency is inconclusive: 14.6 µM [inhibitor, partial curve].

Q: For `O=C(NCCSCc1ccco1)Nc1ccccc1`, which “activity change, negative = inhibition” value is on record?
A: Its value is inactive: 0%.

Q: For `Cn1c(CC(=O)Nc2ccccc2F)nnc1SCC(=O)N1CCOCC1`, which Potency is on record?
A: Its Potency is inconclusive: 16.4 µM [activator, partial curve].

Q: For `CCS(=O)(=O)c1nc(S(=O)(=O)c2ccc(C)cc2)c(N2CCCC(C)C2)s1` (stereo unspecified), which “activity change, negative = inhibition” value is on record?
A: The value was inactive: 0.0733%.

Q: For `O=C(COC(=O)c1cc2ccccc2cc1O)Nc1ccccc1F`, which Potency is on record?
A: Its Potency is inconclusive: 20.6 µM [activator, single point].

Q: With `COc1cc(C(=O)NCCCNc2nc3c(C)cc(C)cc3cc2C#N)cc(OC)c1OC` as the molecule, how does the Potency read?
A: The Potency was inconclusive: 16.4 µM [inhibitor, partial curve].

Q: With `Nc1nc(NCCOCCO)nc(N2CCCCCC2)c1[N+](=O)[O-]` as the molecule, how does the Potency read?
A: Its Potency is inconclusive: 10.3 µM [inhibitor, partial curve].

Q: Which Potency does the source give for `COc1ccc(Cl)cc1NC(=O)C(C)N1CCN(c2ccccn2)CC1` (stereo unspecified) here?
A: The Potency was inconclusive: 32.6 µM [inhibitor, single point].

Q: With `CS(=O)(=O)c1ccc(C(=O)OCc2nnc(-c3ccccc3)o2)cc1[N+](=O)[O-]` as the molecule, how does the “activity change, negative = inhibition” value read?
A: The value was inactive: 26.1%.

Q: Which Potency does the source give for `C=CCc1cccc2cc(C(=O)NC3CCCCC3)c(=O)oc12` here?
A: Its Potency is inconclusive: 16.4 µM [activator, partial curve].

Q: With `Cc1cc(C)nc(NC(=O)c2cccc([N+](=O)[O-])c2C)n1` as the molecule, how does the Potency read?
A: The Potency was inconclusive: 0.366 µM [activator, partial curve, poor fit].

Q: Which Potency does the source give for `C/C(=N\NC(=O)c1cccnc1)c1ccccc1` here?
A: The Potency was inconclusive: 13 µM [activator, partial curve, poor fit].

Q: With `CC(=O)Nc1ccc(S(=O)(=O)Nc2ccc3c(c2)OCO3)cc1` as the molecule, how does the “activity change, negative = inhibition” value read?
A: Its value is inactive: -1.95%.

Q: With `O=C1COc2ccc(S(=O)(=O)N3CCN(c4ccccc4F)CC3)cc2N1` as the molecule, how does the “activity change, negative = inhibition” value read?
A: Its value is inactive: -4.03%.

Q: With `COc1ccc(C(=O)Nc2nnc(S(=O)(=O)Cc3ccccc3)s2)cc1` as the molecule, how does the Potency read?
A: The Potency was inconclusive: 29.1 µM [activator, single point].

Q: With `COc1cccc(NC(=O)[C@H](CC(C)C)NC(=O)[C@@H]2Cc3ccccc3CN2)c1` as the molecule, how does the Potency read?
A: The Potency was inconclusive: 18.3 µM [activator, single point].

Q: Which Potency does the source give for `CCOC(=O)N1CCN(Cc2ccc(OCC(O)CN3CCCCC3)cc2)CC1` (stereo unspecified) here?
A: Its Potency is inconclusive: 23.1 µM [activator, partial curve, poor fit].

Q: For `Cc1cccc(C(=O)OCC(=O)Nc2ccc3c(c2)OCCO3)c1O`, which Potency is on record?
A: The Potency was inconclusive: 18.3 µM [activator, single point].

Q: Which “activity change, negative = inhibition” value does the source give for `O=C(NCc1ccccc1)c1cccc(NC(=O)c2ccco2)c1` here?
A: The value was inactive: -26.5%.

Q: Which Potency does the source give for `Cc1nn(-c2ccccc2)c(Cl)c1/C=N/NC(=O)c1ccco1` here?
A: The Potency was inconclusive: 9.2 µM [activator, partial curve].

Q: Which “activity change, negative = inhibition” value does the source give for `Cc1ccc(C(=O)C(C)Oc2ccc3ccc(=O)oc3c2)cc1` (stereo unspecified) here?
A: The value was inactive: 10.7%.

Q: For `N#Cc1ccsc1NC(=O)COC(=O)c1cc(Br)ccc1O`, which Potency is on record?
A: Its Potency is inconclusive: 29.1 µM [activator, single point].

Q: With `O=C(O/N=C1\C(=O)N(c2ccccc2)c2ccccc21)C1CC1` as the molecule, how does the “activity change, negative = inhibition” value read?
A: The value was inactive: -12.5%.

Q: With `COc1ccc(/C=C2\Sc3ccc(C(=O)NCCN4CCCCCC4)cc3N(C)C2=O)cc1` as the molecule, how does the Potency read?
A: Its Potency is inconclusive: 16.4 µM [activator, partial curve, poor fit].

Q: Which Potency does the source give for `Cc1ccc(-c2cc(C(=O)N3CCC(C)CC3)c3ccccc3n2)cc1` here?
A: Its Potency is inconclusive: 16.4 µM [activator, partial curve, poor fit].

Q: For `Cc1[nH]n(-c2ccccc2)c(=O)c1N=Nc1ccc2c(c1)OCO2`, which Potency is on record?
A: Its Potency is inconclusive: 9.2 µM [activator, partial curve].

Q: With `COc1cccc(NC(=O)c2cccc(S(=O)(=O)N3CCN(Cc4ccccc4)CC3)c2)c1` as the molecule, how does the Potency read?
A: Its Potency is inconclusive: 29.1 µM [inhibitor, single point].

Q: For `NS(=O)(=O)c1ccc(CCNCc2ccccc2OCc2ccc(F)cc2)cc1`, which Potency is on record?
A: Its Potency is active: 11.6 µM.

Q: For `CCN(CC)S(=O)(=O)c1ccc2oc(SCC3CN=C(c4ccc(OC)cc4)S3)nc2c1` (stereo unspecified), which Potency is on record?
A: The Potency was inconclusive: 4.61 µM [inhibitor, partial curve].

Q: Which “activity change, negative = inhibition” value does the source give for `COc1ccc(NC(=O)C2(S(=O)(=O)c3ccc(C)cc3)CC2)cc1OC` here?
A: The value was inactive: -2.18%.

Q: Which Potency does the source give for `O=[N+]([O-])c1ccc(NC(=S)NCc2ccc(F)cc2)cc1` here?
A: Its Potency is inconclusive: 16.4 µM [inhibitor, partial curve, poor fit].

Q: For `COc1cc(NC(=O)c2ccc(Cl)cc2)c(OC)cc1NC(=O)CN1CCCCC1`, which Potency is on record?
A: The Potency was inconclusive: 29.1 µM [inhibitor, single point].

Q: For `CCn1c(=O)n(CC(=O)NCc2ccccc2OC)c(=O)c2ccccc21`, which “activity change, negative = inhibition” value is on record?
A: Its value is inactive: -1.24%.

Q: For `CCOc1ccc(NC(=O)CC2C(=O)N(c3ccc(OC)cc3)C(=O)N2CCc2cccs2)cc1` (stereo unspecified), which Potency is on record?
A: Its Potency is inconclusive: 25.9 µM [inhibitor, single point].

Q: With `CCOC(=O)C1(CCc2ccccc2)CCN(C(=O)c2cnc(C)cn2)CC1` as the molecule, how does the Potency read?
A: The Potency was inconclusive: 20.6 µM [activator, partial curve, poor fit].

Q: For `CCOC(=O)c1cnc(SCC(=O)Nc2cc(OC)ccc2OC)nc1N`, which Potency is on record?
A: Its Potency is inconclusive: 8.2 µM [inhibitor, partial curve, poor fit].

Q: Which Potency does the source give for `O=C(CSc1nncs1)Nc1cc(S(=O)(=O)N2CCOCC2)ccc1N1CCCC1` here?
A: Its Potency is inconclusive: 0.411 µM [inhibitor, full curve].

Q: Which Potency does the source give for `CN=C1S/C(=C\c2ccc(O)c(Br)c2)C(=O)N1C` here?
A: The Potency was inconclusive: 23.1 µM [activator, single point].

Q: For `COc1ccc(OCC(=O)Nc2ccc3c(c2)CCC3)cc1`, which “activity change, negative = inhibition” value is on record?
A: Its value is inactive: 18.6%.

Q: With `Cc1cc(O)cc(O)c1C(=O)Cc1ccccc1` as the molecule, how does the Potency read?
A: Its Potency is active: 10.3 µM.

Q: Which Potency does the source give for `CCC(C)C1C(C#N)=C(N)Oc2n[nH]c(-c3ccccc3)c21` (stereo unspecified) here?
A: Its Potency is inconclusive: 32.6 µM [inhibitor, partial curve, poor fit].

Q: With `CCOC(=O)c1ccc(N2C(=O)C3CCCN3C2=S)cc1` (stereo unspecified) as the molecule, how does the Potency read?
A: Its Potency is inconclusive: 20.6 µM [activator, single point].

Q: For `O=[N+]([O-])c1ccc(Cc2ccccn2)cc1`, which Potency is on record?
A: Its Potency is inconclusive: 22.4 µM [activator, partial curve, poor fit].

Q: For `Cc1ccc(C2C(C#N)=C(N)Oc3n[nH]c(-c4ccccc4)c32)o1` (stereo unspecified), which Potency is on record?
A: The Potency was inconclusive: 20.6 µM [activator, partial curve].

Q: Which Potency does the source give for `O=C(CN1c2cccc3cccc(c23)S1(=O)=O)NCCc1ccccc1` here?
A: Its Potency is inconclusive: 29.1 µM [inhibitor, single point].

Q: Which Potency does the source give for `O=C(Nc1nc(-c2ccccc2)c(C(=O)c2ccccc2)s1)c1ccc(S(=O)(=O)N2CCCCC2)cc1` here?
A: Its Potency is inconclusive: 14.6 µM [inhibitor, partial curve, poor fit].

Q: With `Clc1cccc(Nc2c3c(nc4ncnn24)CCC3)c1` as the molecule, how does the Potency read?
A: Its Potency is inconclusive: 3.26 µM [activator, partial curve, poor fit].

Q: For `COc1ccc(CCn2c(=N)c(C(=O)NCc3ccco3)cc3c(=O)n4cccc(C)c4nc32)cc1`, which Potency is on record?
A: The Potency was inconclusive: 14.6 µM [inhibitor, partial curve, poor fit].

Q: With `NS(=O)(=O)c1cnccc1Nc1ccc(Cl)c(Cl)c1` as the molecule, how does the “activity change, negative = inhibition” value read?
A: Its value is inactive: -18.3%.

Q: Which Potency does the source give for `O=C(c1ccc(F)c(F)c1)N1CCC2(CC1)NCCc1[nH]cnc12` here?
A: Its Potency is inconclusive: 20.6 µM [activator, partial curve, poor fit].

Q: For `Nc1ccc2c(c1)nnn2-c1ccccc1`, which Potency is on record?
A: The Potency was inconclusive: 10.3 µM [activator, partial curve].

Q: For `O=C(Oc1c(CN2CCOCC2)cc(Cl)c2cccnc12)c1cccs1`, which Potency is on record?
A: Its Potency is inconclusive: 6.51 µM [inhibitor, single point].

Q: For `COc1ccc(-c2cc(C(=O)NC3CCCCC3)no2)cc1OC`, which “activity change, negative = inhibition” value is on record?
A: Its value is inactive: -17.8%.

Q: With `COc1ccc2nc(C)cc(SCC(=O)NNC(=O)COc3cccc4ccccc34)c2c1` as the molecule, how does the Potency read?
A: Its Potency is inconclusive: 18.4 µM [inhibitor, single point].
